# Reference: the supplement of paper PMC5949888
# Most values lie at the floor of the assay. Slopes are relative: functional sequences can read slightly below zero.
# Tested on: Saccharomyces cerevisiae PS128 hsf1 delta, HSF1(1-493) fusion
# Assay: growth estimate (transactivation domain function in HSF1 fusion, heat-shock survival) (a.u. (slope of normalised read count over time)); higher = stronger growth at 37°C, i.e. more transactivation activity
# Conditions: library: random library
row,Substance,growth estimate
1,RTCGWVGVPTSDTALNMAFR,< -0.25
2,VGEYPRPPNRRTGYDNHQIK,< -0.25
3,YEVIRASRNFNRTLALTGDT,< -0.25
4,WTSPLEPRRFLEYPGQAAVG,< -0.25
5,YQRRRLYHTLFMNSRWGTPD,< -0.25
6,PLIILASKLQVQSVVPYVGQ,-0.203
7,EWFREPGRRKGQAPSK,< -0.25
8,IPDPVCALCSGSLSVRKFEL,< -0.25
9,AVKVADKTTWIRSSVNGGVR,< -0.25
10,TVPRAQAPRSVDLRSNGPTP,< -0.25
11,CIWTCRDLRPSRSTIPMNQG,< -0.25
12,KPQVIVHPSALRHGLVRTNG,< -0.25
13,RLSASHRGKLWGVDSDSTGV,< -0.25
14,LRVSRLTGKRSH,< -0.25
15,LGSDMFNQFRSGFATRCRIY,< -0.25
16,RTYHVNTGGTRVQGECDRTS,< -0.25
17,GQLTTLVLGFPGWGIQRRRR,-0.187
18,RPTYYE,< -0.25
19,RATGVDKFELLDDSAISSAP,-0.234
20,STSLANCPVGILHGRVVWLR,< -0.25
21,GAMVPRSIEFLMNFGG,0.0084
22,IGVPL,< -0.25
23,NVDSGTEGLCYCVARKNQLW,< -0.25
24,SREKVREKCVRMFTQRGRGA,< -0.25
25,TFYGDDDL,< -0.25

row,Substance,growth estimate
1,RQTGVLFLRPSIRIYGDSQA,< -0.25
2,GPWR,< -0.25
3,PFRLGRGSKSTSSHVERT,< -0.25
4,QPKR,< -0.25
5,SGDSCDDSSGDGGGR,< -0.25
6,VVTAISRSTATILDL,< -0.25
7,FALRPRTKQWVRFVFRQLVE,< -0.25
8,STDLGRDCSLVPVT,< -0.25
9,FLSREVTPRIL,< -0.25
10,PLIVGQNAHSAHVRGRKCCA,< -0.25
11,AVGAMDFERESSENSVLITA,< -0.25
12,GAIVHIGG,< -0.25
13,RSNSLVKTSIWCGA,< -0.25
14,CILHSSMLLFG,< -0.25
15,LRLERWSCALAMANAPRTGS,< -0.25
16,AGFQVLVPPIAATVHGRQHI,< -0.25
17,CWFE,< -0.25
18,DTLGKL,< -0.25
19,CAPAIF,< -0.25
20,TSGNCLRAG,< -0.25
21,GETRRTARLTSGLVEIYALE,< -0.25
22,HRSISNATSNNVNRALLECV,< -0.25
23,QCLRQSSVWPSQ,< -0.25
24,GGISLFPRGDGHLTRFKIRQ,< -0.25
25,ISVIVEVGVTG,< -0.25

row,Substance,growth estimate
1,YWFQAD,< -0.25
2,IGLLLRKH,< -0.25
3,YSSSALLYVRHPTASEYLP,< -0.25
4,ARYRGHQSLSSALQAISTGD,< -0.25
5,ARHDAWL,< -0.25
6,PPKVISVGSRNGWANLTISL,< -0.25
7,VTGWCIGNY,< -0.25
8,EGVETHQPGPITDVVLFRVR,< -0.25
9,ARQSDTGP,< -0.25
10,SCGSYSCRRPTTCQRCCSEP,-0.246
11,NCAEDKLVVLRVPTGRGIRS,< -0.25
12,LLLCFGIAIRIMPLSRRIIS,< -0.25
13,RVAPRLRCHHTPCPTGCEFF,< -0.25
14,HTD,< -0.25
15,YGTGDLMTCRRSL,< -0.25
16,LATCILVSEA,< -0.25
17,SYPVRRMLKVRAQSFARPTD,< -0.25
18,EGQHSISYQCERLKDWVPDK,< -0.25
19,DLALRGGGP,< -0.25
20,LWNFIGLHHG,< -0.25
21,ESNSPGWAIV,-0.246
22,GCEYYYRSGSVPTRS,< -0.25
23,GRTPSKLIPATRKGSALH,< -0.25
24,GDSGGVSRRKKNKYGQDP,< -0.253
25,WPLYLASQSVNLY,-0.219

row,Substance,growth estimate
1,CLELRKATNSRLLDMAHIEL,< -0.25
2,ANIVREGW,< -0.25
3,LNTALIGG,< -0.25
4,KCSLDQPVHENR,< -0.25
5,LRKFVTITRPL,< -0.25
6,VVLVRRIG,< -0.25
7,DNIV,< -0.25
8,PTRKPNALVGLGLRCEETSS,< -0.25
9,LICGSFLTCQGQPSVNRWKD,< -0.25
10,LTQKRASST,< -0.25
11,LGADSTIGNVQGRWPL,< -0.25
12,SMVTDAIS,< -0.253
13,GVPKGARYLVTIGSFLWRHP,< -0.25
14,LNGPTYIIPVAVRGNLSAFQ,< -0.25
15,DRARSYSGRVYRSVGGSS,< -0.25
16,SATCMKSAKRAHVCL,< -0.25
17,LCARNDRLAPRHTVTPYAVR,< -0.25
18,HQV,< -0.25
19,LKTVRFCSMSESSGPDKGIP,< -0.25
20,KADPL,< -0.25
21,SLSGTHARSVVYHSGQAEHI,< -0.25
22,DKFRRQVRCADRESGLSRQR,< -0.25
23,LHRWLNRLSFGHSCI,< -0.25
24,CRGD,< -0.25
25,TGNVEKSGVCRGSKGQTGST,< -0.25

row,Substance,growth estimate
1,GRSSSGSTT,< -0.25
2,MELDEARYARMDGSRSVHRV,< -0.25
3,LSSFCRGEQTDLVLASHKAI,< -0.25
4,NRVVGLYLSSTSGAEFAGRA,< -0.25
5,HGSWESERVQLSSTLRPSQG,< -0.25
6,RVWNLSMP,< -0.25
7,SRRVQVDTS,< -0.25
8,LCGDIKCRTDVV,-0.222
9,REYPFEQGVGCPPVVCGGPA,< -0.25
10,FFSTYRSCAKEVSFFFLQTR,< -0.25
11,DFLRYSATIQR,< -0.25
12,LRISYKVGFQLDDYGLTRRD,< -0.25
13,GVSVFNIIASYFECLVRYFR,< -0.25
14,LPSGVAVRQGNSTPWI,< -0.25
15,YVYDRIAKDSCPCDSVPWTA,< -0.25
16,GGRTAKLMNRSEL,-0.23
17,SPVGSGNSLPSLYNIPIHC,< -0.25
18,SKWARMIRGRSAWIPCQRIG,< -0.25
19,LGSER,< -0.25
20,CQDGVIFNKWPC,< -0.25
21,WSTCCRCPHRGGGHAE,< -0.25
22,RRECGPGGNGYPGLGMSDAR,< -0.25
23,TDFQTNSGIALALRQLTARG,< -0.25
24,SRAWAKSLCVSVWPHNKLRS,< -0.25
25,TQTASVTVSPGYEEHAIYVS,-0.25

# Shown with tabs: entries from further up
row	Substance	growth estimate
22	DKFRRQVRCADRESGLSRQR	< -0.25
25	TQTASVTVSPGYEEHAIYVS	-0.25

# (next part)

row,Substance,growth estimate
1,IHQHIYLLGLATSSPAVPAL,< -0.25
2,FRSSVTFSESLLDGRVHAWC,< -0.25
3,FDDRSPE,< -0.25
4,STTAQTS,< -0.25
5,RRMTRPAGHT,< -0.25
6,CIQLTLTVGPFEYEGTAGV,< -0.25
7,AKPWC,< -0.25
8,IKLPASPT,< -0.25
9,LHLEKVGPRPSNGSACP,< -0.25
10,AISERETDSILYVSEVLMPA,< -0.25
11,RAISVILVPRAPSNLPLLRT,< -0.25
12,ALLS,< -0.25
13,RRQCIVG,< -0.25
14,WIRVLHWSRLPSHRKGQSFA,< -0.25
15,RHDQQECGPDPGVTADPQHA,< -0.25
16,SLALSSGARNSRRAFTQSTY,< -0.25
17,NRQGEGK,< -0.25
18,FIFEVRNQWT,< -0.25
19,DVRDTGYPTRSVCVGL,< -0.25
20,LQG,< -0.25
21,WEAGRVC,< -0.25
22,TSLVGLSLWLPNLSKDYMYR,< -0.25
23,LLSKIGVNNPVGKGKRIYPF,-0.245
24,LWGALAIGFEISS,< -0.25
25,SELPSKKIFPPATGGRHLCA,< -0.25

row,Substance,growth estimate
1,WYIL,4.7
2,TARVLESVPKFVPPETDTRP,< -0.25
3,ARPRAIRGAIERGQVCRPQK,< -0.25
4,EMADLLWFRRPLMIDQPTVG,< -0.25
5,SRIAVYGREET,< -0.25
6,YST,< -0.25
7,WYVALPALSRRSYLVKISPA,< -0.25
8,DKRLRIRECETLRGFSNEFP,< -0.25
9,ITPSLRGRGASL,< -0.25
10,LLGALTDV,< -0.25
11,YRWRTGTLAWIKS,< -0.25
12,YYLCIVDTRRNQGRERGYAH,< -0.25
13,VLCALQWDDMGLLPQSGMEW,< -0.25
14,NSNRYMSSVAN,< -0.25
15,QGYKRGV,-0.0786
16,PCAHGTFSPLLLKKSRSGCY,< -0.25
17,DIGVSTKPC,< -0.25
18,IGNV,< -0.25
19,RRPWAPVYQSNYTKANMRLR,< -0.25
20,GFTMGYRGKRQLVGKQCGS,< -0.25
21,TSSASGAGQCRCIGGRSPLP,< -0.25
22,GLAGYLGSGAVGRTSLLSPD,< -0.25
23,PYTWVIRGLPPIGARIPDSV,< -0.25
24,VRTVVS,< -0.25
25,TGVVRLKRNEACCSRAV,< -0.25

row,Substance,growth estimate
1,IYLRTSDRRFLFTWRVVPAF,< -0.25
2,CVHAAK,-0.0867
3,IENVRC,< -0.25
4,VPSVCQASLLI,< -0.25
5,TAKGTADRGTPPGHDKSYRQ,< -0.25
6,RCLEKS,< -0.25
7,GSIKRICREVVCINTLAVQP,< -0.25
8,FCIELSCGGPLLRKHASCAS,< -0.25
9,GQTSFVSCRGSSRRSCYRSI,< -0.25
10,ALIL,< -0.25
11,GFNLGWGQASSCASLGRGEH,< -0.25
12,INRTICGDR,< -0.25
13,SLFRLCLKRVACRGRPSPTS,< -0.25
14,RAFGLGSRSSLYVALRWEVA,< -0.25
15,HAREGLTRTGRARRACISSL,< -0.25
16,LKTLLQEGVATMCKSILAPG,< -0.25
17,VLHPTVGL,< -0.25
18,VIVSRILLKGLWELGTLGRY,0.0558
19,MKTGGMTGFIIPAR,< -0.25
20,WDLADPISSQHILHRALAKP,< -0.25
21,RCLSVGHLICSG,< -0.25
22,NVVASSNCVREVVYVG,< -0.25

# Quoted from the listing.
# Entry for RCLSVGHLICSG under growth estimate: < -0.25
# Entry for SLFRLCLKRVACRGRPSPTS under growth estimate: < -0.25
# Entry for NVVASSNCVREVVYVG under growth estimate: < -0.25
# Entry for GFNLGWGQASSCASLGRGEH under growth estimate: < -0.25
# Entry for FCIELSCGGPLLRKHASCAS under growth estimate: < -0.25
# Entry for MKTGGMTGFIIPAR under growth estimate: < -0.25
